# “And” between values parts separate entries of the source, which are not always exact repeats. Equal entries are not always repeated. The campaign covered roughly 350,000 compounds. About 6,000 (1.7%) were called active. The inconclusive results got no clear call from the source; some entries with a clear call stand among them for comparison. Rule as the data show it: active = CPE inhibition above about 20% (passing the limit was not always enough); inconclusive = no clear call, values can overlap the other calls; tested in BHK-21 cells.
# Experiment: protection of cells from dengue 2 killing – plate reader, single concentration, primary screen (AID 651640);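 also: 0% = median of neutral control wells and 100% = median of positive control wells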
# Conditions: DENV2-infected cells, cytopathic effect rescue, at 9.99 µM, stronger effect = higher value
row,Compound,CPE inhibition
1,CCCC#Cc1cnc2c(c1)C(=O)N([C@@H](C)CO)C[C@H](C)[C@H](CN(C)S(C)(=O)=O)O2,inactive: 5.94%
2,C[C@H]1CCCCO[C@H](CN(C)Cc2ccc(Cl)c(Cl)c2)[C@@H](C)CN([C@@H](C)CO)C(=O)c2cc(NC(=O)CCC(F)(F)F)ccc2O1,inactive: 2.11%
3,C[C@@H]1CN([C@@H](C)CO)C(=O)c2cc(-c3cccnc3)cnc2O[C@@H]1CN(C)Cc1ccc(-c2ccccc2)cc1,active: 37.2%
4,CN(C)S(=O)(=O)c1cccc(C(=O)OCC(=O)c2ccc3c(c2)NC(=O)CO3)c1,inactive: 2.16%
5,CCOc1ccc(S(=O)(=O)Nc2c(C)n(C)n(-c3ccccc3)c2=O)cc1,inconclusive: 33.6%
6,CC1(Oc2ccc(-n3ccnc3)cc2)CCN(Cc2cccn2-c2nccs2)C1 (stereo unspecified),inconclusive: 38.2%
7,CCc1nc2ccc(C(=O)N3CCN(c4cccc(C(F)(F)F)c4)CC3)cc2nc1CC,inconclusive: 55.5%
8,CCCOc1ccccc1/C=N/Nc1ccnc(=O)[nH]1,inconclusive: 21.8%
9,CCOc1ccc(C2OC(=O)Cc3cc(OC)c(OC)cc32)cc1 (stereo unspecified),inconclusive: 36.2%
10,C[C@H]1CCCCO[C@H](CN(C)C(=O)Nc2ccc3c(c2)OCO3)[C@@H](C)CN([C@@H](C)CO)C(=O)c2cc(NC(=O)CCC(F)(F)F)ccc2O1,inconclusive: 20.9%
11,CCOC(=O)c1c(C)[nH]c(C)c1S(=O)(=O)N(C)CC(=O)NCc1cccc(Br)c1,inconclusive: 20.1%
12,COC(=O)N1C(=O)[C@](c2ccc(Cl)cc2)(C(C)C)N1C(=O)OC,active: 50.2%
13,C[C@H]1CN([C@@H](C)CO)C(=O)c2cc(NC(=O)CCN3CCOCC3)ccc2O[C@H]1CN(C)S(=O)(=O)c1ccc(Cl)cc1,inactive: 4.37%
14,O=C(NC(=S)Nc1ccc(NC(=O)c2cccs2)cc1)c1ccc([N+](=O)[O-])cc1,inconclusive: 22.3%
15,COc1ccc(C#Cc2ccc3c(c2)[C@H]2[C@H](CCN2C(=O)c2ccccn2)[C@H](CO)N3)cc1,inactive: -6.97%
16,O=S1(=O)CC(N2CCCC2)CN1Cc1ccc(F)cc1 (stereo unspecified),inconclusive: 25.3%
17,C[C@@H]1CN([C@@H](C)CO)C(=O)CCCn2nncc2CO[C@H]1CN(C)C(=O)Nc1ccc(C(C)(C)C)cc1,active: 22.1%
18,O=C(Nc1ccccn1)c1cc(-c2ccc(Cl)s2)nc2ccccc12,inconclusive: 20.7%
19,Cc1ccc(CN2CCN(CC(=O)N3CCC(C(N)=O)CC3)C2=O)cc1,inconclusive: 44.3%
20,CCCNC(=O)N1C[C@@H]2[C@H](c3ccccc31)[C@@H](CO)N2C(=O)NCCC,inconclusive: 27.5%
21,Cc1noc(C)c1S(=O)(=O)N(C)C[C@@H]1Oc2ccc(NC(=O)C3CC3)cc2CC(=O)N([C@H](C)CO)C[C@@H]1C,inconclusive: 36.4%
22,C[C@H]1CN([C@@H](C)CO)C(=O)c2cc(C#CC(C)(C)O)cnc2O[C@@H]1CN(C)C(=O)C1CCOCC1,inconclusive: 31.3%
23,CC(C)OCCCNC(=O)COCC(=O)Nc1ccc(OCCc2ccccc2)cc1,inconclusive: 33.9%
24,CCCC(=O)Nc1ccc2c(c1)OC[C@@H](C)N(Cc1ccncc1)C[C@H](C)[C@@H](OC)CN(C)C2=O,active: 25.2%

row,Compound,CPE inhibition
1,C[C@@H]1CCCCO[C@@H](CN(C)S(=O)(=O)c2ccccc2)[C@H](C)CN([C@@H](C)CO)C(=O)c2cc(NC(=O)CCCN(C)C)ccc2O1,active: 25.6%
2,COc1ccc(C)cc1N(CC(=O)Nc1ccc2c(c1)OCCO2)S(C)(=O)=O,inactive: -4.88%
3,O=C(NCC(=O)N1CCN(S(=O)(=O)c2ccccc2)CC1)c1ccc2ccccc2c1,inactive: -0.433%
4,O=C(C[C@H]1CC[C@H]2[C@@H](COC[C@H](O)CN2C(=O)Nc2ccc(F)cc2)O1)NC1CCC1,inconclusive: 28.6%
5,Cc1ccc(CCNC(=O)CN2C(=O)CSc3ccc(S(=O)(=O)N4CCOCC4)cc32)cc1,inconclusive: 32%
6,O=[N+]([O-])c1ccc(/C=N/Nc2nc(NCc3ccccc3)nc(N3CCOCC3)n2)cc1,inactive: -2.07%
7,CC1CCC(C(C)C)C(OC(=O)Cn2c(-c3ccccc3)[n+](C)c3ccccc32)C1 (stereo unspecified),inactive: -13.3% and inactive: -13.6%
8,Cc1cccc2c1NC(=O)C2=Nc1ccc(Cl)cc1,inactive: 12.7%
9,C[C@@H]1CN([C@H](C)CO)C(=O)CCCn2nncc2CO[C@@H]1CN(C)S(=O)(=O)c1ccccc1,inconclusive: 42.7%
10,CCS(=O)(=O)N1CCCCN2[C@H](CO)[C@@H](c3ccc(C#CC(C)(C)O)cc3)[C@@H]2C1,inactive: 1.25%
11,Cc1cc(C(=O)N/N=C/c2ccc(-c3cccc(Br)c3)o2)n[nH]1,inconclusive: 40.4%
12,CCOc1ccc(/C=C2\SC(=O)N(CCNC(=O)CN3C(=O)NC4(CCCC4)C3=O)C2=O)cc1OC,active: 55.6%
13,COc1ccccc1S(=O)(=O)N(C)C[C@@H]1OCc2ccccc2-c2c(n(C)c3ccccc23)C(=O)N([C@H](C)CO)C[C@H]1C,inconclusive: 22.9%
14,COc1cc(NC(=O)Cn2nc(C(F)(F)F)c(Br)c2C)cc([N+](=O)[O-])c1,inactive: -0.563%
15,Cc1cccc(N2CCN(CC(O)COc3ccc4ccccc4c3)CC2)c1 (stereo unspecified),inconclusive: 43.5%
16,CCCN(C)C[C@@H]1Oc2cc(C#CCC(C)C)ccc2S(=O)(=O)N([C@H](C)CO)C[C@@H]1C,active: 34.3%
17,C#CCNC(=O)C[C@@H]1C[C@@]2(C(=O)OC)CCCCC=C2N(CCC2=CCCCC2)C1=O,inconclusive: 89.5%
18,C[C@@H](NC(=O)C[C@@H]1CC[C@@H](NC(=O)C2CCC2)[C@H](CO)O1)c1ccccc1,inactive: 1.21%
19,OCC#CCSc1nnc(-c2cccc3ccccc23)o1,active: 92.8%
20,Cc1cc(C)cc(NC(=O)CCCCCN2C(=O)[C@@H]3Cc4ccccc4CN3C2=O)c1,inconclusive: 24.6%
21,Clc1cccc(Cc2c(C3CCCCC3)nc3c4ccccc4ccn23)c1,inconclusive: 91.3%
22,COc1ccc(CN(C(=O)c2snc(C(N)=O)c2N)C(C(=O)NC2CCCC2)c2ccc(OC)cc2)cc1 (stereo unspecified),inconclusive: 21.6%
23,CCCCC1(CC(=O)OCC)C(=O)N(c2ccccc2)N(c2ccccc2)C1=O,inconclusive: 30.1%
24,CC(C)Cn1c(N)c(C(=O)COC(=O)c2cc(F)cc(F)c2)c(=O)n(C)c1=O,inconclusive: 30.3%

row,Compound,CPE inhibition
1,CC1=C(C(=O)N(C(C)C)C(C)C)CC(CC(=O)NCc2ccco2)C(=O)N1Cc1ccc(F)cc1 (stereo unspecified),inconclusive: 33.6%
2,CO[C@H]1CN(C)C(=O)c2ccc(NS(=O)(=O)c3cn(C)cn3)cc2OC[C@H](C)N(CC2CC2)C[C@H]1C,inconclusive: 37.9%
3,COc1ccc(S(=O)(=O)Nc2cc(S(=O)(=O)N3CCOCC3)ccc2OC)cc1,inconclusive: 22.1%
4,CN(C)CC(=O)N[C@@H]1CC[C@@H](CC(=O)NCc2ccc(Cl)cc2)O[C@H]1CO,inactive: -3.17%
5,CN1CCCCN2[C@H](CO)[C@H](c3ccc(-c4cccnc4)cc3)[C@H]2C1,inconclusive: 30.8%
6,CN(C)C(=O)COC(=O)c1ccccc1Sc1ccccc1C#N,inactive: 3.58%
7,OC[C@H]1[C@H](c2ccc(-c3ccccc3F)cc2)[C@H]2CN(Cc3cncnc3)CCCCN21,active: 45.6%
8,Cc1sc2ncnc(-n3nnc4ccccc43)c2c1C,inconclusive: 25.3%
9,C[C@H]1CN([C@@H](C)CO)C(=O)c2cccc(NC(=O)C3CCOCC3)c2O[C@@H]1CN(C)C,active: 39.5%
10,NCC[C@H]1CC[C@H](NC(=O)NC2CCCCC2)[C@H](CO)O1,inconclusive: 33.9%
11,C[C@@H]1CN([C@@H](C)CO)C(=O)c2cc(C#CC3(O)CCCC3)cnc2O[C@H]1CN(C)S(=O)(=O)c1ccccc1,inconclusive: 0.702%
12,CC(C(=O)NCC1CCCCC1)N1CCN(S(=O)(=O)c2cccs2)CC1 (stereo unspecified),inconclusive: 20.5%
13,COc1ccc(NC(=O)N(C)C[C@H]2Oc3c(NC(=O)c4nc5ccccc5s4)cccc3C(=O)N([C@H](C)CO)C[C@@H]2C)cc1,inconclusive: 25.6%
14,Cc1ccc(N(CC(=O)Nc2c(C)cccc2C)S(C)(=O)=O)cc1,inconclusive: 45.1%
15,C[C@@H]1CN([C@H](C)CO)C(=O)c2cc(NC(=O)Nc3ccccc3)ccc2O[C@@H](C)CCCCO[C@@H]1CN(C)C(=O)c1ccccc1,inconclusive: 71.1%
16,O=S(=O)(c1ccc2ccccc2c1)N1CCOCC1,inconclusive: 36.5%
17,Cc1ccc(S(=O)(=O)N2C[C@]3(O)C[C@@H]4C(=O)N(c5ccccc5)C(=O)[C@@H]4C[C@]3(OC(=O)NCc3ccccc3)C2)cc1,inconclusive: 48%
18,COc1ccc(CN(C)C[C@@H]2OCCCC[C@H](C)Oc3ccc(NS(=O)(=O)c4ccc(OC)cc4)cc3C(=O)N([C@@H](C)CO)C[C@@H]2C)cc1,inconclusive: 23%
19,CN(C(=O)CSc1ncccn1)C1CCS(=O)(=O)C1 (stereo unspecified),inconclusive: 32.3%
20,O=c1oc2cc(O)ccc2s1,inconclusive: 37.8%
21,CCNC(=O)Nc1ccc2c(c1)C(=O)N(C)[C@@H]1CC[C@H](CC(=O)N[C@H](C)c3ccccc3)O[C@@H]1CO2,inconclusive: 32.1%
22,Cc1cc(OCC(=O)OCC(=O)N2c3ccccc3NC(=O)C2(C)C)ccc1Cl,inconclusive: 29.9%
23,Cc1ccc(S(=O)(=O)NC(C)(C)CN2CCC(Cc3ccccc3)CC2)cc1,inactive: 0.988%

# Rewritten as tab-separated lines: entries from further up
row	Compound	CPE inhibition
5	CN1CCCCN2[C@H](CO)[C@H](c3ccc(-c4cccnc4)cc3)[C@H]2C1	inconclusive: 30.8%
8	Cc1sc2ncnc(-n3nnc4ccccc43)c2c1C	inconclusive: 25.3%
